Consider one molecule from PMC12613110, “Anti-Trypanosoma cruzi Effects of Sesquiterpenoids from Branches of Drimys brasiliensis (Winteraceae)” (ACS Omega, 2025).

Several values for one entry are separate records, joined by “and”; a condition that tells them apart may be missing. Equal values may be shown once. Where only a bound is given, the exact number is not on record here.

Series [1] concerns T. cruzi trypomastigotes (Y strain). Description: Anti-T. cruzi activity against trypomastigote forms (resazurin reduction assay, 24 h). The conditions noted are these: Selectivity Index, NCTC CC50 vs trypomastigote EC50. The class given is cell-based, Trypanosoma cruzi. How it is done:
(§1) The trypomastigote forms of T. cruzi (Y strain) were maintained in culture using Rhesus monkey kidney cells (LLC-MK2, ATCC CCL-7). These cells were cultured in RPMI-1640 medium supplemented with 2% fetal bovine serum (FBS) and incubated at 37 °C in a humidified atmosphere containing 5% CO2. Mouse fibroblast cells (NCTC clone L929, ATCC) and LLC-MK2 cells were similarly maintained in RPMI-1640 medium supplemented with 10% FBS under identical incubation conditions (37 °C, 5% CO2). Peritoneal macrophages were isolated from BALB/c mice by peritoneal lavage using RPMI-1640 medium supplemented with 10% FBS, followed by incubation at 37 °C in a 5% CO2 humidified atmosphere. In addition, the human monocytic cell line THP-1 (ATCC TIB-202) was cultured in RPMI-1640 medium supplemented with 20% FBS and […] glutamine, and maintained at 37 °C in a humidified 5% CO2 environment.
Compounds 1–6 were initially dissolved in DMSO and subsequently diluted in RPMI-1640 medium to the desired concentrations before being dispensed into 96-well microplates. T. cruzi trypomastigotes were then added at a density of 1 × 10^6 parasites per well. The plates were incubated for 24 h at 37 °C in a humidified atmosphere containing 5% CO2. […] Absorbance readings were acquired at 570 nm using a microplate spectrophotometer (FilterMax F5). […]
A general note: The colour change of resazurin is a common sign of viable cells or microbes.

The test system of series [2] is intracellular amastigote forms of T. cruzi. Description: Activity against intracellular amastigote forms of T. cruzi in infected peritoneal macrophages (48 h). The class given is cell-based, Trypanosoma cruzi. The conditions noted are these: Selectivity Index, NCTC CC50 vs amastigote EC50. The protocol:
as §1
The antiparasitic activity of compounds 1–6 against the intracellular amastigote forms of T. cruzi was assessed using an in vitro infection model with peritoneal macrophages. Macrophages were seeded in 16-well plates at a density of 1 × 10^5 cells per well and incubated at 37 °C in a humidified atmosphere containing 5% CO2 for 24 h to promote adherence. Cells were then infected with trypomastigotes for 2 h under the same conditions to allow parasite internalization. […]

With `C=C1[C@@H](C)CC[C@]2(C)[C@@H](C=O)C(C=O)=CC[C@@H]12` [Compound 6, 9-deoxymuzigadial], the SI trypomastigote in series [1] is recorded as >34.0. In addition, in series [2], the SI amastigote was 64.3 and >64.3.
